{"source": "patent US8822491B2", "about": "“Methods and compositions for treating β-thalassemia and sickle cell disease” (Academia Sinica, priority 2011, dated 2014)", "note": "Some entries share one result that the patent states for a list of compounds. Some ranges recur; such a range may be that of the whole group of compounds.", "data": [{"test_system": "γ globin mRNA", "experiment": "Real time RT-PCR of γ globin mRNA in primary human erythroid cultures", "type": "cell-based", "conditions": "absolute quantitative RT-PCR, treatment at IC50 for 3 days, FIG. 9 (8% without treatment)", "description": "Mouse erythroleukemic (MEL) cells, an adult erythroid cell line (Friend, et al. (1971) Proc Natl Acad Sci USA 68:378-82), were maintained in DMEM medium (Gibco) supplemented with 10% FBS and 1% penicillin-streptomycin, in 37° C. chamber under a 5% CO2 humidified atmosphere. For establishing stable cell lines, transfection of the reporter pmLAR-Gp-DsRed-Bp-d2EGFP into MEL cells was carried out using the Neon™ transfection system (Invitrogen). 2×10^6 MEL cells were transfected with 5 μg of the plasmid. Following microporation, the MEL cells were seeded in 10 ml antibiotics-free DMEM for 24 hrs and selected with […] of neomycin for one month. The primary human erythroid culture was initiated by maintaining the purified mononuclear cells in SFEM medium with 1× cc100 cytokine mix (StemSpan) for 7 days. The cells were then kept in the differentiation medium (SFEM with 20 ng/ml SCF, 1 U/ml EPO, 5 ng/ml IL-3, 2 micromolar dexamethasone) for another 7 days at a density of 0.1−1×10^6 cells/ml. The cells were treated with chemical compound at day 7 post-differentiation and then harvested for further analysis after 3 days of compound treatment.\nTotal RNAs were isolated with use of the RNAspin Mini kit (GE Healthcare). cDNA synthesis was carried out using SuperScript II reverse transcriptase (Invitrogen). Quantitative RT-PCR was performed using the SYBR Green PCR Master Mix (Applied Biosystems) and ABI 7500 real-time System. All data were analyzed after normalization to the expression level of the mouse or human […] gene.", "values": [{"smiles": "O=C(O)c1ccc(C(=O)O)c2c(-c3ccc4c(=O)n5c6ccccc6nc5c5ccc(C(=O)O)c3c45)ccc(C(=O)O)c12", "note": "[compound A, 8-(3-Carboxy-7-oxo-7H-benzo[de]benzo[4,5]imidazo[2,1-a]isoquinolin-4-yl)-naphthalene-1,4,5-tricarboxylic acid]", "proportion of the γ globin mRNA among the total β-like globin mRNAs": "10.7-19.6%"}, {"smiles": "O=c1c2cccc3cccc(c32)c2nc3ccccc3n12", "note": "[compound B, Benzo[de]benzo[4,5]imidazo[2,1-a]isoquinolin-7-one]", "proportion of the γ globin mRNA among the total β-like globin mRNAs": "10.7-19.6%"}, {"smiles": "O=c1c2cccc3c(Cl)ccc(c32)c2nc3ccccc3n12", "note": "[compound C, 3-Chloro-benzo[de]benzo[4,5]imidazo[2,1-a]isoquinolin-7-one]", "proportion of the γ globin mRNA among the total β-like globin mRNAs": "10.7-19.6%"}, {"smiles": "O=C(O)c1ccc2c(=O)n3c4ccccc4nc3c3ccc(C(=O)O)c1c23", "note": "[compound F, 7-Oxo-7H-benzo[de]benzo[4,5]imidazo[2,1-a]isoquinoline-3,4-dicarboxylic acid]", "proportion of the γ globin mRNA among the total β-like globin mRNAs": "10.7-19.6%"}]}]}
